# Assay results as given in PubChem BioAssay AID2685 (National Center for Advancing Translational Sciences (NCATS), 2010).
# The list shows a part of the results. The main result of the screen is listed elsewhere. These columns were measured beside it and carry no call. The list favours compounds with an active or inconclusive main result. Potencies come from curve fits of mixed quality, noted in brackets.
# Assay: qHTS Assay for Lipid Storage Modulators in Drosophila S3 Cells;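 for cell number change: cells counted by Cell Tracker Red CMTPX staining in the red channel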
# Settings: BODIPY lipid droplet fluorescence, 18-24 h; for cell number change: measured here: cell count max response, cells fed with added oleic acid
# In short: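 Laser-scanning cytometry quantifies lipid droplet accumulation (500–530 nm total intensity; droplet/cell object ratio) in oleic acid-fed (400 uM added) Drosophila S3 cells treated with a concentration series. 20 uM Triacsin C defined 100% inhibition.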
# [1] = measured here: lipid fluorescence (Fed channel) AC50, cells fed with added oleic acid
# [2] = measured here: cell number channel AC50, cells fed with added oleic acid
SMILES,cell number change,AC50 [1],AC50 [2]
CCCNC(=O)c1ccccc1NC(=O)COc1cccc2c1OC(C)(C)C2,-19.7%,"6.51 µM [rising, single point]",
O=C(O)CSc1nnc(-c2ccc(Cl)cc2Cl)n1-c1ccc(Br)cc1,-26.2%,,
OCC1(CC2CCCCO2)CCN(Cc2nc3ccccc3[nH]2)CC1 (configuration not stated),-17.4%,"0.0058 µM [falling, full curve, poor fit]",
C/C(=N\NC(=O)c1c(Cl)cnn1C)c1ccc(NC(=O)c2ccc(Br)o2)cc1,53%,"5.17 µM [falling, partial curve]","29.1 µM [rising, single point]"
CCc1nnc(NS(=O)(=O)c2ccc(NC(=S)NC(=O)/C=C/c3ccc([N+](=O)[O-])cc3)cc2)s1,-2.45%,"7.31 µM [falling, single point]",
CCOC(=O)N1CCN(C2CC(=O)N(c3ccccc3)C2=O)CC1 (configuration not stated),0.0646%,,
O=C(Nc1ccc(N2CCN(C(=O)c3cccs3)CC2)c(Cl)c1)c1ccco1,8.12%,"0.731 µM [rising, single point]",
O=[N+]([O-])c1ccc2nccn2c1,4.32%,"4.61 µM [rising, single point]",
NC(=O)c1ccsc1NC(=O)COC(=O)/C=C/c1ccccc1,-3.04%,"1.46 µM [rising, partial curve]",
COc1ccc(/C=C/c2onc(C)c2S(=O)(=O)N2CCC(C(=O)N3CCC(C)CC3)CC2)cc1,-8.66%,"0.651 µM [rising, full curve, poor fit]",
NS(=O)(=O)c1ccc(CCNC(=O)c2coc3ccccc3c2=O)cc1,2.78%,"29.1 µM [rising, single point]",
S=c1[nH]nc(COc2cccc3ccccc23)n1Cc1ccccc1,-27.6%,"9.2 µM [falling, single point]",
CC(=O)Nc1ccc(N=Nc2c(C)[nH]n(C(N)=S)c2=O)cc1,-34.2%,"6.51 µM [falling, partial curve]","8.2 µM [falling, partial curve]"
Cc1ccc(C)c(NC(=O)COC(=O)CC2c3ccccc3CCN2S(=O)(=O)c2ccc(F)cc2)c1 (configuration not stated),-42.3%,"0.00517 µM [rising, full curve, poor fit]","29.1 µM [falling, single point]"
CC(C)(C)OC(=O)CNC(=O)c1nc[nH]c1C(=O)N1CCN(C(=O)OC(C)(C)C)CC1,19.8%,,
O=C(NCCN1CCCCC1)Nc1ccc(F)c(Cl)c1,17.6%,"1.84 µM [falling, partial curve]",
Cc1ccc(C(=O)NNC(=O)c2cc3ccccc3cc2O)cc1,24.6%,"29.1 µM [rising, single point]",
O=C(CC1C(=O)N(c2ccc(F)cc2)C(=O)N1Cc1ccccn1)Nc1ccccc1 (configuration not stated),40.9%,,"25.9 µM [rising, single point]"

SMILES,cell number change,AC50 [1],AC50 [2]
CC(=O)c1ccc(N2CCN(C(=O)c3ccc(Cl)c(NC4=NC5CS(=O)(=O)CC5S4)c3)CC2)cc1 (configuration not stated),52.8%,,"29.1 µM [rising, single point]"
Cn1cnnc1SCC(=O)c1ccc(OC(F)F)cc1,11.9%,"1.16 µM [falling, full curve]",
N/C(Cn1cncn1)=N\NC(=O)C(=O)Nc1ccccc1,-32.7%,"2.59 µM [falling, partial curve, poor fit]",
CC1CC(C)CN(CC(=O)NNC(=O)COc2ccc(Cl)cc2)C1 (configuration not stated),-40.9%,"0.00731 µM [falling, full curve, poor fit]","0.00517 µM [falling, full curve, poor fit]"
COc1ccccc1CN1C[C@@H]2C[C@@H](c3cccc(C)n3)N3CCC[C@@]23C1=O,5.03%,"0.517 µM [falling, full curve, poor fit]",
Cc1cccc(N2CCN(C(=O)c3ccc(-n4cncn4)c([N+](=O)[O-])c3)CC2)c1C,-26.3%,"1.3 µM [rising, partial curve]",
CC(=O)C1C(c2ccc(O)cc2)NC(=O)NC1(O)C(F)(F)F (configuration not stated),-24.4%,"7.31 µM [falling, partial curve]",
CC(=O)Nc1ccc2c(c1)CCc1ccccc1-2,15.4%,"0.13 µM [rising, full curve, poor fit]",
CN(C)CCNC(=S)Nc1ccc(Br)cc1,33.3%,"23.1 µM [rising, single point]","10.3 µM [rising, single point]"
COc1ccc(-c2nc(C#N)c(NCCCn3ccnc3)o2)cc1OC,46.3%,"4.61 µM [rising, partial curve]","2.59 µM [rising, full curve]"
COc1ccc(N2CCC(CNC(=O)Nc3ccc(Cl)cc3)C2)cc1 (configuration not stated),53.3%,"0.058 µM [rising, full curve, poor fit]","0.0206 µM [rising, full curve, poor fit]"
Cc1ccc(CSc2nc3c(c(N(C)C)n2)CCCC3)cc1,,"6.51 µM [rising, single point]","2.06 µM [rising, partial curve, poor fit]"
COc1ccc(C(C(=O)NCCC(C)C)N(CCO)C(=O)c2snc(C(N)=O)c2N)cc1OC (configuration not stated),-15.8%,,
COC(=O)C(Cc1ccc(O)cc1)NC(=O)C(C)NC(=O)c1ccc(C(C)(C)C)cc1 (configuration not stated),-1.8%,"29.1 µM [falling, single point]",
CCOc1cc(CO)c(Br)cc1OCC(=O)O,-0.443%,"29.1 µM [falling, single point]",
Cn1c(SCC(=O)Nc2ccc(F)cc2)nc2c([nH]c3ccccc32)c1=O,4.14%,"0.116 µM [rising, full curve]",
NC(=O)c1sc2nnc(-c3ccccc3)c(-c3ccccc3)c2c1N,36.1%,"0.517 µM [rising, full curve]","0.411 µM [rising, full curve, poor fit]"
Cn1ncc(Cl)c(Oc2ccc(Cl)cc2)c1=O,43.7%,"13 µM [falling, partial curve, poor fit]","29.1 µM [rising, single point]"

# Whole records as entered above:
# Cn1ncc(Cl)c(Oc2ccc(Cl)cc2)c1=O reads cell number change: 43.7%; AC50 [1]: 13 µM [falling, partial curve, poor fit]; AC50 [2]: 29.1 µM [rising, single point]
# CCc1nnc(NS(=O)(=O)c2ccc(NC(=S)NC(=O)/C=C/c3ccc([N+](=O)[O-])cc3)cc2)s1 reads cell number change: -2.45%; AC50 [1]: 7.31 µM [falling, single point]
# CCOC(=O)N1CCN(C2CC(=O)N(c3ccccc3)C2=O)CC1 (configuration not stated) reads cell number change: 0.0646%
